Values from PubChem BioAssay AID1159596 (NIAID, 2016).
This is an unselected part of 756 reagents. Over the whole deposit, 143 (19%) were called active. 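Active means the reporter moved past about ±1.5 in either direction; scores are per single siRNA, not per gene; peptidoglycan dose not given.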 Entries without a mark were called inactive. The numbers tell different reagents against one gene apart. No sequences are given here. The record does not give: the amount of reagent.

Purpose: 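Knock-down of 126 toll-like receptor signalling parts, six siRNAs each, on a TNF reporter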 (primary screen)
System: human THP1 B5 monocytic reporter cells made macrophage-like with PMA
Reagents: single siRNA against human genes
Duration: assayed 48 to 72 hours after siRNA transfection; peptidoglycan stimulation lasted 4 hours
Treatment: Staphylococcus aureus peptidoglycan for 4 hours; dose not given
Measurement: 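TNF-alpha promoter firefly/renilla luciferase ratio after 4 h s. aureus peptidoglycan; plate median/MAD scaled, robust z versus negative control wells, mean of replicates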
Scale: TNF reporter z-score: higher = stronger TNF promoter reporter response to peptidoglycan
Hit rule: In these data the active calls have TNF reporter z-score, replicate mean at about -1.5 or lower, or at about 1.5 or higher
Calls: active = reporter shifted beyond cut (either direction); inactive = reporter near control level

no.	gene	siRNA no.	TNF reporter z-score, replicate mean
1	MAPK9 (GeneID 5601)	1	-0.733
2	MAPK9 (GeneID 5601)	2	-0.204
3	MAPK9 (GeneID 5601)	3	-0.315
4	MAPK9 (GeneID 5601)	4	0.311
5	MAPK9 (GeneID 5601)	5	-0.176
6	MAPK9 (GeneID 5601)	6	0.0673
7	MAPK1 (GeneID 5594)	1	-0.134
8	MAPK1 (GeneID 5594)	2	0.135
9	MAPK1 (GeneID 5594)	3	-0.172
10	MAPK1 (GeneID 5594)	4	0.525
11	MAPK1 (GeneID 5594)	5	-0.975
12	MAPK1 (GeneID 5594)	6	0.0133
13	MAP2K7 (GeneID 5609)	1	-1.19
14	MAP2K7 (GeneID 5609)	2	-1.11
15	MAP2K7 (GeneID 5609)	3	-1.11
16	MAP2K7 (GeneID 5609)	4	-1.83 (active)
17	MAP2K7 (GeneID 5609)	5	-1.78 (active)
18	MAP2K7 (GeneID 5609)	6	-1.35
19	NFKBIE (GeneID 4794)	1	-1.93 (active)
20	NFKBIE (GeneID 4794)	2	-1.66 (active)
21	NFKBIE (GeneID 4794)	3	-0.889
22	NFKBIE (GeneID 4794)	4	-2.95 (active)
23	NFKBIE (GeneID 4794)	5	-1.34
24	NFKBIE (GeneID 4794)	6	-3.43 (active)
25	AKT2 (GeneID 208)	1	-1.31
26	AKT2 (GeneID 208)	2	-0.0852
27	AKT2 (GeneID 208)	3	-0.861
28	AKT2 (GeneID 208)	4	-0.78
29	AKT2 (GeneID 208)	5	0.923
30	AKT2 (GeneID 208)	6	-0.0499
31	MAP2K4 (GeneID 6416)	1	-1.03
32	MAP2K4 (GeneID 6416)	2	-1.39
33	MAP2K4 (GeneID 6416)	3	0.28
34	MAP2K4 (GeneID 6416)	4	0.211
35	MAP2K4 (GeneID 6416)	5	0.0574
36	MAP2K4 (GeneID 6416)	6	-0.12
37	NFKB2 (GeneID 4791)	1	-0.19
38	NFKB2 (GeneID 4791)	2	-0.985
39	NFKB2 (GeneID 4791)	3	2.16 (active)
40	NFKB2 (GeneID 4791)	4	0.148
41	NFKB2 (GeneID 4791)	5	-4.7 (active)
42	NFKB2 (GeneID 4791)	6	0.206
43	IRF3 (GeneID 3661)	1	-0.509
44	IRF3 (GeneID 3661)	2	-0.853
45	IRF3 (GeneID 3661)	3	-1.21
46	IRF3 (GeneID 3661)	4	0.387
47	IRF3 (GeneID 3661)	5	-0.245
48	IRF3 (GeneID 3661)	6	-1.21
